AC50 and cell number change data for 56 compounds are collected here from PubChem BioAssay AID2685 (National Center for Advancing Translational Sciences (NCATS), 2010).

The test can be described thus: qHTS Assay for Lipid Storage Modulators in Drosophila S3 Cells.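 On cell number change: cells counted by Cell Tracker Red CMTPX staining in the red channel.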 The following applies: BODIPY lipid droplet fluorescence, 18-24 h; for cell number change: measured here: cell count max response, cells fed with added oleic acid. A digest of the protocol: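 Drosophila S3 cells loaded with oleic acid (400 uM, as added) and compounds at several concentrations; lipid droplets imaged by 488-nm laser-scanning cytometry, 500–530 nm intensity and object ratio to cell channel. Percent activity normalized to 20 uM Triacsin C.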
A general note: Quantitative high-throughput screening tests each substance at several concentrations.

Setting [1] is: measured here: cell number channel AC50, cells fed with added oleic acid.
[2] abbreviates: measured here: lipid fluorescence (Fed channel) AC50, cells fed with added oleic acid.

SMILES strings stand for the structures. The list shows a part of the results. Further columns of the screen follow, without active or inactive calls. Most of these compounds were active or inconclusive in the main read-out, so they are no random draw. The note in brackets gives the kind of curve behind each potency; many fits are weak.

As usually defined, the AC50 is the midpoint of the concentration-response curve, whichever way the signal moves. Read a high AC50 as activity only at high concentration. On to `COc1ccc(NC(=O)CSc2nnc3ccc(-c4ccncc4)nn23)cc1OC`, for which the AC50 under setting [1] is 1.84 µM [falling, partial curve, poor fit] and the AC50 under setting [2] is 6.51 µM [falling, single point].

For `COCCN(C(=O)CNC(=O)c1ccco1)C(C(=O)NC1CCCC1)c1ccccc1` (centres undefined), the cell number change is 21.3%. Further, under setting [2], the AC50 was 6.51 µM [rising, single point].

On to `NC(=O)c1ccsc1NC(=O)COC(=O)c1c(F)cccc1Cl`, for which the cell number change was -2.8%. Besides, the AC50 under setting [2] is 1.16 µM [rising, partial curve, poor fit].

Turning to `Cc1cccc(CSc2nc3[nH]ncc3c(=O)[nH]2)c1`, the cell number change came out at 31.8%.

Turning to `CC(C)(C)C(=O)NC1CCN(S(=O)(=O)c2ccccc2F)CC1`, the cell number change is -11.5%. Besides, the AC50 under setting [2] was 29.1 µM [falling, single point].

Consider `CC(C)Oc1ccc(C(=O)OCC(=O)NC2CCCCCC2)cc1`, for which the cell number change was -9.25%.

For the compound `Cc1c(C(=O)NC2CC(=O)N(c3ccc4c(c3)OCCO4)C2)cccc1[N+](=O)[O-]` (centres undefined), the AC50 under setting [2] is 18.4 µM [rising, partial curve].

With `CN(C)CCCN(C(=O)c1ccco1)c1nc(-c2ccc(Cl)cc2)cs1`, the cell number change came to 4.93%. For the same compound, the AC50 under setting [2] is 18.4 µM [falling, single point].

Consider `Fc1ccc(-c2cnn3c(-c4ccncc4)ccnc23)cc1`, for which the cell number change was found to be 34.1%. Besides, under setting [1], the half-maximal activity concentration (AC50) is 0.184 µM [rising, full curve, poor fit]. Besides, the AC50 under setting [2] is 32.6 µM [rising, single point].

Turning to `CCC(C(=O)NCCCc1ccccc1)c1ccccc1` (centres undefined), the cell number change came to 1.06%. Under setting [1], the AC50 is 0.082 µM [falling, full curve]. Moreover, the AC50 under setting [2] was 0.164 µM [falling, full curve, poor fit].

For `O=[N+]([O-])c1ccc(Sc2nnnn2-c2ccccc2)c(Cl)c1`, the AC50 under setting [2] is 0.326 µM [falling, full curve, poor fit].

With `O=C(NCC1CCCO1)C(=O)N/N=C/c1cc(Cl)ccc1O` (centres undefined), the half-maximal activity concentration (AC50) under setting [2] is 0.13 µM [falling, full curve, poor fit].

In the case of `CCOC(=O)C(NCc1ccccc1OC)(NC(=O)c1ccccc1)C(F)(F)F` (centres undefined), the cell number change is -19.4%. The AC50 under setting [2] is 0.103 µM [falling, full curve, poor fit].

Turning to `O=C(Nc1ccc(-n2cnnn2)cc1)C1CCCN1C(=O)NC1CCCCC1` (centres undefined), the cell number change is -7.11%.

Take `CC1CCCCN1CCCNC(=O)C1CCN(c2nc3ccccc3o2)CC1` (centres undefined): the cell number change was -47.8%. Also, the AC50 under setting [1] was 14.6 µM [falling, partial curve, poor fit]. Also, the AC50 under setting [2] is 13 µM [falling, partial curve].

Consider `CC(NCCOc1ccccc1F)C(=O)Nc1ccc(S(N)(=O)=O)cc1` (centres undefined), for which the cell number change was found to be 27.8%. Further, under setting [2], the AC50 is 0.231 µM [falling, full curve, poor fit].

Take `Clc1ccc(-c2[nH]ncc2N=Nc2ccccc2)cc1`: the cell number change was -57.8%. In addition, the AC50 under setting [1] was 18.4 µM [falling, single point]. The AC50 under setting [2] was 29.1 µM [falling, single point].

With `COc1cc(/C=N/Nc2ncc(C(F)(F)F)cc2Cl)cc(OC)c1O`, the cell number change worked out at 18%. Moreover, under setting [2], the AC50 is 11.6 µM [rising, partial curve].

As for `CC(=O)N1CCN(c2ccc(NC(=O)c3ccc([N+](=O)[O-])o3)cc2Cl)CC1`, the cell number change came to 8.26%. In addition, under setting [2], the AC50 was 2.91 µM [falling, single point].

For the compound `COCCn1nnnc1C(c1ccccc1)N1CCN(C(=O)c2ccco2)CC1` (centres undefined), the cell number change was -28.2%.

Regarding `Cc1occc1-c1nnc(SCc2cc(=O)n3cc(Br)ccc3n2)n1C`, the cell number change stood at 0.593%. The AC50 under setting [2] is 0.259 µM [rising, partial curve, poor fit].

In the case of `CC[C@@]12C(=O)N(c3cccc(F)c3)C(=O)N1[C@H](c1ccc(Br)cc1)[C@@H]1C(=O)N(C(C)(C)C)C(=O)[C@@H]12`, the cell number change was -9.97%. Further, under setting [1], the AC50 was 1.16 µM [falling, partial curve].

For the compound `CC(C)c1ccc(C2CC(=O)N3CN(C)CSC3=C2C#N)cc1` (centres undefined), the cell number change amounted to 2.1%. Under setting [2], the AC50 was 5.17 µM [rising, full curve].

Regarding `COc1ccc(C(=O)CCC(=O)O)c(C)c1`, the cell number change is -70.6%. Moreover, the AC50 under setting [1] was 4.11 µM [falling, full curve]. Also, under setting [2], the AC50 is 29.1 µM [falling, single point].

With `CC(C)(O)CC[C@H](OC(=O)c1ccccc1)[C@](C)(O)[C@H]1CC[C@@]2(O)C3=CC(=O)[C@@H]4C[C@@H](O)[C@H](O)C[C@]4(C)C3CC[C@]12C` (some centres undefined), the cell number change is -13.9%. Also, the AC50 under setting [2] was 29.1 µM [rising, partial curve].

`Cc1ccc(NC(=O)CCNS(=O)(=O)c2ccc3c(c2)CCC(=O)N3)c(Br)c1`: the cell number change was found to be 1.73%. For the same compound, under setting [2], the AC50 is 29.1 µM [rising, single point].

With `COc1ccc(C(=O)NCC(=O)N2CCCC(C)C2)cc1OC` (centres undefined), the cell number change was 2.98%. Also, the AC50 under setting [1] was 0.651 µM [falling, single point].

`CCc1cccc2c(C(=O)COC(=O)/C=C/c3ccc(O)c(OC)c3)c[nH]c12`: the cell number change is -42.2%. For the same compound, the AC50 under setting [1] was 29.1 µM [falling, single point]. The AC50 under setting [2] was 29.1 µM [falling, single point].

For the compound `O=C1CN(C(=O)CC2c3ccccc3-c3ccccc32)CC(=O)N1`, the cell number change is -29.2%. Also, under setting [2], the AC50 is 29.1 µM [falling, single point].

As to `Brc1ccc(Oc2ncc(CN3CCN(c4ccccc4)CC3)s2)cc1`, the AC50 under setting [1] was 1.64 µM [rising, partial curve, poor fit].

For the compound `COc1ccc(/C=N/NC2=NS(=O)(=O)c3ccccc32)cc1OC(C)=O`, the AC50 under setting [1] was 6.51 µM [rising, partial curve, poor fit].

Consider `Cc1c(C(=O)OCCOc2ccccc2)[nH]c2c1C(=O)CCC2`, for which the cell number change is -78.4%. The AC50 under setting [1] is 0.82 µM [falling, full curve, poor fit]. Besides, the AC50 under setting [2] was 23.1 µM [falling, partial curve, poor fit].

Regarding `COc1ccc(N2CCN(c3cc(C)c4ccccc4n3)CC2)cc1`, the cell number change was -7.87%. Further, the AC50 under setting [1] is 3.66 µM [rising, single point]. Moreover, under setting [2], the AC50 is 6.51 µM [rising, single point].

With `COc1ccc(CCNC(=O)C2CCN(S(=O)(=O)c3ccc(OC)cc3)CC2)cc1`, the cell number change was -17.6%. Besides, the AC50 under setting [2] is 4.11 µM [rising, full curve].

With `COc1ccc(C(=O)Nc2sc(C)c(C)c2CN2CCOCC2)cc1`, the cell number change is -0.544%. Besides, the AC50 under setting [2] is 32.6 µM [falling, single point].

In the case of `C=CCn1cc(C(=O)OC)c(=O)c2cc(S(=O)(=O)N3CCC(C)CC3)ccc21`, the cell number change came to 7.22%. Moreover, the AC50 under setting [1] is 2.06 µM [rising, single point].

`CCOc1ccc(N2C(=O)c3cccnc3C2Nc2ccc(C)c(C)c2)cc1` (centres undefined): the cell number change was determined as 8.11%.

As for `O=C1C2CC=C(Cl)CC2C(=O)N1CN(Cc1ccco1)CN1C(=O)C2CC=C(Cl)CC2C1=O` (centres undefined), the cell number change is -38.8%. Moreover, the AC50 under setting [1] is 29.1 µM [falling, single point]. Moreover, the AC50 under setting [2] was 0.0651 µM [falling, full curve].

As for `O=C(COc1ccc(Cl)cc1)Nc1ccccc1C(=O)NCc1ccco1`, the cell number change is -64.4%. Moreover, under setting [1], the AC50 was 20.6 µM [falling, single point]. The AC50 under setting [2] was 2.06 µM [rising, partial curve].

Turning to `O=C1C=C(c2cccc(CO)c2)C[C@@H](c2ccc(F)cc2)C1`, the cell number change was -31.7%. Moreover, under setting [1], the AC50 was 3.66 µM [falling, single point]. Also, the AC50 under setting [2] was 1.3 µM [rising, partial curve].

As for `Cc1nnc(NC2CCCCC2)[nH]c1=O`, the cell number change is -35.5%. Under setting [1], the concentration at half-maximal activity (AC50) was 32.6 µM [falling, single point].

For the compound `CCCCOc1cccc(/C=N/NC(=O)c2csc(C)c2C)c1`, the cell number change is -25%. Further, the AC50 under setting [2] was 29.1 µM [falling, single point].

In the case of `CSc1ncccc1C(=O)Nc1ncc(C)s1`, the cell number change was -2.7%.

As to `COc1ccc(Cn2c(=S)[nH]c3cc(C(=O)N4CCN(c5ccccc5)CC4)ccc3c2=O)cc1`, the cell number change was found to be 8.97%.

In the case of `Cc1ccc(C2N(c3ccccc3)C(=O)N3CCCN23)cc1` (centres undefined), the cell number change is -40.8%. The AC50 under setting [1] is 35.5 µM [falling, single point]. For the same compound, the AC50 under setting [2] was 15.8 µM [falling, partial curve, poor fit].

In the case of `Cn1c(NCc2cccc(Br)c2)nc2ccccc21`, the AC50 reads like this: under setting [1], 3.26 µM [rising, partial curve]; under setting [2], 4.11 µM [rising, partial curve].

`C1CNCCNCCCNCCNC1`: the cell number change stood at 4.46%. Besides, the AC50 under setting [2] is 10.3 µM [falling, partial curve].

With `CCOc1ccc(NC(=O)CCCN2C(=O)C(c3ccccc3)Oc3cccnc32)cc1` (centres undefined), the cell number change is -23.6%. Also, under setting [2], the half-maximal activity concentration (AC50) is 29.1 µM [falling, single point].

As to `C[C@@H](C(=O)NCCc1ccccc1)N1C(=O)N2CCc3c([nH]c4ccccc34)[C@@]2(C)C1=O`, the cell number change is -40.4%. In addition, the AC50 under setting [1] is 29.1 µM [falling, single point].

`COc1ccc(-n2cc(CNCCCn3ccnc3)c(-c3ccccc3Cl)n2)cc1`: the cell number change is 19.6%. The AC50 under setting [2] is 29.1 µM [rising, single point].

In the case of `COCCNC(=O)c1nc2ccccc2s1`, the cell number change worked out at 23.6%. Under setting [2], the AC50 was 7.31 µM [rising, partial curve].

In the case of `CCc1nnc(NC=C2C(=O)OC(C)(C)OC2=O)s1`, the cell number change amounted to 8.32%. Under setting [2], the AC50 was 5.8 µM [rising, partial curve, poor fit].

Take `C=C(C)c1cccc(C(C)(C)NC(=O)NCc2ccc(OC)c(OC)c2)c1`: the cell number change is -37.1%. The AC50 under setting [1] was 11.6 µM [falling, partial curve]. For the same compound, under setting [2], the AC50 was 18.4 µM [falling, partial curve].

With `CCn1nc(C(=O)OCC(=O)Nc2nc(-c3ccc(OC)cc3)cs2)c2ccccc2c1=O`, the cell number change amounted to 44.8%. Also, under setting [1], the AC50 is 2.31 µM [rising, full curve]. Besides, the AC50 under setting [2] is 0.82 µM [rising, full curve].

On to `C1CCC2(CC1)C1=C(CCCC1)Nc1nnnn12`, for which the cell number change is -2.38%.

Regarding `CCOC(=O)N1CCC(Nc2c(Nc3ccc(C)c(C)c3)c(=O)c2=O)CC1`, the cell number change came to 71.4%. For the same compound, the AC50 under setting [1] was 11.6 µM [rising, partial curve, poor fit]. For the same compound, the AC50 under setting [2] is 8.2 µM [rising, partial curve].
